Data from PubChem BioAssay AID1332 (Southern Research Institute, 2008).
≈ marks a conversion by molar mass, not a printed value. Where “and” joins values, the source holds several entries; their conditions need not be identical. Equal entries are not always repeated. The list shows a part of the results. These are further read-outs of the screen, such as a control signal, another cell line or another target. No call is given for them.

Assay: Mycobacterium tuberculosis H37Rv growth inhibition, confirmatory dose response, cytotoxicity (AID 1332);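 on CC50: Vero cells exposed to compounds for 72 hours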;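 on IC50: bacteria incubated 7 days before adding Alamar blue readout reagent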
Conditions: M. tuberculosis H37Rv growth inhibition; CC50: measured here: Vero cell cytotoxicity; IC50: measured here: IC50 H37Rv replicates
For `COc1cc(OC)c(C(=O)CCCN2CCCC2)c(OC)c1`, the IC50 was > 20 µg/mL. In the case of `CCN1C(=O)NC(c2ccccc2)C1=O` (stereo not given), the IC50 is reported as > 20 µg/mL. For `CN[C@H]1[C@@H](O)[C@H](O[C@H]2[C@@H](O)[C@@H](OC3OC(CN)=CCC3N)[C@H](N)C[C@@H]2N)OC[C@@]1(C)O` (stereo not given in full), the IC50 was > 20 µg/mL. For `COc1ccccc1N1CCN(CC(O)COc2cccc3ccccc23)CC1` (stereo not given), the IC50 was > 20 µg/mL. For `CN1CCCC(CC2c3ccccc3Sc3ccccc32)C1` (stereo not given), the CC50 was > 6 µg/mL and the IC50 was 5.64 µg/mL (≈ 18.2 µM). With `CC[C@H](CC[C@@H](C)[C@H]1CC[C@H]2[C@@H]3CC=C4C[C@@H](O)CC[C@]4(C)[C@H]3CC[C@]12C)C(C)C` the IC50 was > 20 µg/mL. With `CCCN(CCC)C(=O)C(CCC(=O)O)NC(=O)c1ccccc1` (stereo not given) the IC50 was > 20 µg/mL. In the case of `COc1cc2c(cc1O)C[C@H]1c3c(cc(O)c(OC)c3-2)CCN1C`, the IC50 is reported as > 20 µg/mL. `C=C1C(=O)O[C@@H]2[C@H]3O[C@]3(C)CC/C=C(\C)CC[C@@H]12` showed a CC50 of 3.19 µg/mL (≈ 12.8 µM) and an IC50 of 0.944 µg/mL (≈ 3.8 µM). In the case of `N[C@@H](Cn1ccc(=O)c(O)c1)C(=O)O`, the IC50 is reported as > 20 µg/mL. With `O=C(CCCN1CCC(n2c(=O)[nH]c3ccccc32)CC1)c1ccc(F)cc1` the IC50 was > 20 µg/mL. For `CC(C)(Oc1ccc(Cl)cc1)C(=O)O`, the IC50 was > 20 µg/mL. For `Cn1c(=O)c2[nH]cnc2n(C)c1=O`, the IC50 was > 20 µg/mL. For `Cc1[nH]c(=O)c(C#N)cc1-c1ccncc1`, the IC50 was > 20 µg/mL. In the case of `OC(c1ccccc1)(c1ccccc1)C1CCNCC1`, the IC50 is reported as > 20 µg/mL. In the case of `CN1C(C(=O)Nc2ccccn2)=C(O)c2sccc2S1(=O)=O`, the IC50 is reported as > 20 µg/mL. With `Cc1ncc([N+](=O)[O-])n1CC(O)CCl` (stereo not given) the IC50 was > 20 µg/mL. In the case of `C[C@]12CC[C@H]3C(=CCc4cc(O)ccc43)[C@@H]1CCC2=O`, the IC50 is reported as > 20 µg/mL. In the case of `C/C=C/C(=O)N(CC)c1ccccc1C`, the IC50 is reported as > 20 µg/mL. In the case of `C=C[C@H]1CN2CC[C@H]1C[C@@H]2[C@@H](O)c1ccnc2ccc(OC)cc12`, the IC50 is reported as > 20 µg/mL. In the case of `S=C(NC1CCCCC1)N1CCC(C2C=NC=N2)CC1` (stereo not given), the IC50 is reported as > 20 µg/mL. In the case of `C[N+]1(C)CCCC(OC(=O)C(O)(c2ccccc2)c2ccccc2)C1` (stereo not given), the IC50 is reported as > 20 µg/mL. In the case of `CO[C@@]1(NC(=O)Cc2cccs2)C(=O)N2C(C(=O)O)=C(COC(N)=O)CS[C@@H]21`, the IC50 is reported as > 20 µg/mL. With `CN1C2CCC1CC(O)C2` (stereo not given) the IC50 was > 20 µg/mL. In the case of `CCCCC(CC)CN1CN(CC(CC)CCCC)CC(C)(N)C1` (stereo not given), the IC50 is reported as 4.78 µg/mL (≈ 14.1 µM). With `NC(N)=NCc1cccc(I)c1` the IC50 was > 20 µg/mL. For `CO[C@@H]1[C@@H](OC(N)=O)[C@@H](O)C(Oc2ccc3c(O)c(NC(=O)c4ccc(O)c(CC=C(C)C)c4)c(=O)oc3c2C)OC1(C)C` (stereo not given in full), the IC50 was 1.46 µg/mL (≈ 2.39 µM). In the case of `CCN(CC)CCOC(=O)C(c1ccccc1)C1CCCCC1` (stereo not given), the IC50 is reported as > 20 µg/mL. For `COc1cc(Cc2cnc(N)nc2N)cc(OC)c1OC`, the IC50 was > 20 µg/mL. With `CN(C)/N=N/c1nc[nH]c1C(N)=O` the IC50 was 0.488 µg/mL (≈ 2.68 µM). In the case of `CCCCOC(=O)c1ccc(N)cc1`, the IC50 is reported as > 20 µg/mL. `CN[C@@H]1C(O[C@H]2O[C@H](CO)[C@@H](N)[C@H](O)[C@H]2O)O[C@H]2C[C@@H](N)[C@@H](O[C@H]3[C@H](O)[C@@H](O)[C@H](N)C[C@@H]3N)OC2[C@@H]1O` (stereo not given in full) showed an IC50 of 2.38 µg/mL (≈ 4.41 µM). With `O=C1NCN(c2ccccc2)C12CCN(CCCC(c1ccc(F)cc1)c1ccc(F)cc1)CC2` the CC50 was > 6 µg/mL and the IC50 was 2 µg/mL (≈ 4.21 µM). In the case of `CCCC(C)(COC(N)=O)COC(=O)NC(C)C` (stereo not given), the IC50 is reported as > 20 µg/mL. For `C[C@H]1[C@H](C)CC[C@]2(C(=O)O[C@@H]3O[C@H](COC4O[C@H](CO)[C@@H](OC5O[C@@H](C)[C@H](O)[C@@H](O)[C@H]5O)[C@H](O)[C@H]4O)[C@@H](O)[C@H](O)[C@H]3O)CC[C@]3(C)C(=CC[C@@H]4[C@@]5(C)C[C@@H](O)[C@H](O)[C@@](C)(CO)C5CC[C@]43C)[C@H]12` (stereo not given in full), the IC50 was > 20 µg/mL. In the case of `CCC1(C)CC(=O)NC(=O)C1`, the IC50 is reported as > 20 µg/mL. With `C[C@@]12C(=O)OC(=O)[C@]1(C)[C@H]1CC[C@@H]2O1` the CC50 was 4.5 µg/mL (≈ 23 µM) and the IC50 was > 20 µg/mL. In the case of `NS(=O)(=O)c1cc(C(=O)O)c(NCc2ccco2)cc1Cl`, the IC50 is reported as > 20 µg/mL. For `Cc1cc(C2CCCCC2)n(O)c(=O)c1`, the CC50 was 0.409 µg/mL (≈ 1.97 µM) and the IC50 was > 20 µg/mL. For `NC(=O)c1ncn([C@@H]2O[C@H](CO)[C@@H](O)[C@H]2O)n1`, the IC50 was > 20 µg/mL. For `CCOc1ccc2c(c1)C(C)=CC(C)(C)N2`, the IC50 was > 10 µg/mL. For `CC(C)COCC(CN(Cc1ccccc1)c1ccccc1)N1CCCC1` (stereo not given), the CC50 was > 6 µg/mL and the IC50 was 6.21 µg/mL (≈ 16.9 µM). In the case of `CCCCNC(=O)NS(=O)(=O)c1ccc(C)cc1`, the IC50 is reported as > 20 µg/mL. In the case of `CC(=O)[C@H]1CC[C@H]2[C@@H]3C[C@H](C)C4=CC(=O)CC[C@]4(C)[C@H]3[C@@H](O)C[C@]12C`, the IC50 is reported as > 20 µg/mL. With `CC(=O)[C@H]1CC[C@H]2[C@@H]3CC[C@H]4C[C@H](O)CC[C@]4(C)[C@H]3C(=O)C[C@]12C` the IC50 was > 20 µg/mL. For `OCc1cc(C(O)CNCCCCCCOCCCCc2ccccc2)ccc1O` (stereo not given), the IC50 was > 20 µg/mL. In the case of `Cc1nc2n(c(=O)c1CCN1CCC(c3noc4cc(F)ccc34)CC1)CCCC2`, the IC50 is reported as > 20 µg/mL. With `CCS(=O)(=O)CCn1c([N+](=O)[O-])cnc1C` the IC50 was > 20 µg/mL. For `COc1ccc2cc([C@@H](C)C(=O)O)ccc2c1`, the IC50 was > 20 µg/mL. With `CC(C)NCC(O)COc1cccc2ccccc12` (stereo not given) the IC50 was > 20 µg/mL. In the case of `CC1(C)NC(=O)N(c2ccc([N+](=O)[O-])c(C(F)(F)F)c2)C1=O`, the IC50 is reported as > 20 µg/mL. For `Cc1cccc(CN2CCN(C(c3ccccc3)c3ccc(Cl)cc3)CC2)c1` (stereo not given), the IC50 was 6.56 µg/mL (≈ 16.8 µM). With `CCOC(=O)C1=C[C@]2(CC)CCCN3CCc4c(n1c1ccccc41)[C@@H]32` the IC50 was > 20 µg/mL. With `C[C@]12CC[C@@H]3c4ccc(O)cc4CC[C@H]3[C@@H]1CCC2=O` the IC50 was > 20 µg/mL. For `c1ccc2[nH]c(-c3cscn3)nc2c1`, the IC50 was > 20 µg/mL. With `CN1[C@@H](CC(=O)c2ccccc2)CCC[C@H]1C[C@H](O)c1ccccc1` the IC50 was > 20 µg/mL. With `C=C1C[C@]23C[C@@]1(O)CC[C@H]2[C@@]12C=C[C@H](O)[C@@](C)(C(=O)O1)[C@H]2[C@@H]3C(=O)O` the IC50 was > 20 µg/mL. In the case of `CC(=O)NC1CCSC1=O` (stereo not given), the IC50 is reported as > 20 µg/mL. In the case of `CN(C)CCCO[C@@H]1[C@H]2OC(C)(C)O[C@H]2O[C@@H]1[C@H](O)CO`, the IC50 is reported as > 20 µg/mL. For `CCc1cccc2c3c([nH]c12)C(CC)(CC(=O)O)OCC3` (stereo not given), the IC50 was > 20 µg/mL. With `CC[N+](CC)(CC)CCC(O)(c1ccccc1)C1CCCCC1` (stereo not given) the IC50 was > 20 µg/mL. In the case of `CO/N=C(\C(=O)N[C@@H]1C(=O)N2C(C(=O)O)=C(C[N+]3(C)CCCC3)CS[C@H]12)c1csc(N)n1`, the IC50 is reported as > 20 µg/mL. In the case of `CN1C(=O)CCS(=O)(=O)C1c1ccc(Cl)cc1` (stereo not given), the IC50 is reported as > 20 µg/mL. For `C=CC1=C(C(=O)O)N2C(=O)[C@@H](NC(=O)/C(=N\OCC(=O)O)c3csc(N)n3)[C@H]2SC1`, the IC50 was > 20 µg/mL. In the case of `CN/C(=C/[N+](=O)[O-])NCCSCc1csc(CN(C)C)n1`, the IC50 is reported as > 20 µg/mL. For `Cc1ccccc1N1C(=O)c2cc(S(N)(=O)=O)c(Cl)cc2NC1C` (stereo not given), the IC50 was > 20 µg/mL. With `c1ccc2c(c1)CCCc1cc(NCCN3CCOCC3)nnc1-2` the IC50 was > 20 µg/mL. In the case of `Nc1cc(-c2ccncc2)c[nH]c1=O`, the CC50 is reported as > 6 µg/mL and the IC50 is reported as > 20 µg/mL. For `Nc1c(Br)cc(Br)cc1CNC1CCC(O)CC1` (stereo not given), the IC50 was > 20 µg/mL. For `CN(C)CCOC(=O)COc1ccc(Cl)cc1`, the IC50 was > 20 µg/mL. In the case of `c1ccc2c3c([nH]c2c1)[C@H]1C2CCC([C@@H]4CCCN[C@H]24)N1CC3` (stereo not given in full), the IC50 is reported as > 20 µg/mL. In the case of `Cc1cn([C@H]2C[C@@H](N=[N+]=[N-])[C@@H](CO)O2)c(=O)[nH]c1=O`, the IC50 is reported as > 20 µg/mL. In the case of `OC(CCN1CCCCC1)(c1ccccc1)C1CCCCC1` (stereo not given), the IC50 is reported as > 20 µg/mL. With `N[C@@H](C(=O)N[C@@H]1C(=O)N2C(C(=O)O)=C(Cl)CS[C@H]12)c1ccccc1` the IC50 was > 20 µg/mL and 1.93 µg/mL. In the case of `CC(C)NC[C@H](O)c1ccc(O)c(O)c1`, the IC50 is reported as > 20 µg/mL. With `CC(Oc1ccccc1)C(=O)N[C@@H]1C(=O)N2[C@@H]1SC(C)(C)[C@@H]2C(=O)O` (stereo not given in full) the IC50 was > 20 µg/mL. With `N[C@H]1C[C@@H]1c1ccccc1` the IC50 was > 20 µg/mL. In the case of `Cn1c([N+](=O)[O-])cnc1COC(N)=O`, the IC50 is reported as > 20 µg/mL.
